Results from PubChem BioAssay AID1487 (National Center for Advancing Translational Sciences (NCATS), 2009).
Some of the results follow. Shown are side measurements of this screen, not its main read-out; they come without a call. The list favours compounds with an active or inconclusive main result. Words in brackets tell the shape of the fitted curve; partial curves, single points and poor fits give uncertain potencies.

Assay: qHTS Assay for Modulators of Lamin A Splicing
Conditions: HeLa LMNA splicing GFP/RFP minigene ratio, 48 h
Outline: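 Read-out is the ratio of GFP to DsRed2 object intensity, acquired by 488 nm laser-scanning cytometry on HeLa lamin A-EGFP minigene reporter cells. Compound incubation 48 hrs at 37 °C in Opti-MEM with 2% FBS; DMSO 0.5% final.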

[1] = measured here: GFP splicing reporter channel
[2] = measured here: RFP viability control channel

COc1ccc(C(=O)Nc2ccccc2Cc2ccccc2)c(OC)c1
AC50 [1]: 35.5 µM [rising, single point]

Cc1c(N=C2NN=C(c3c[nH]c4ccccc34)CS2)c(=O)n(-c2ccccc2)n1C
AC50 [1]: 35.5 µM [falling, single point]

CCC(c1nnnn1Cc1ccc2c(c1)OCO2)N1CCN(c2ccc(OC)cc2)CC1 (stereo unspecified)
AC50 [1]: 15.8 µM [rising, single point] | AC50 [2]: 14.1 µM [rising, single point]

O=C(Nc1ccc(S(=O)(=O)N2CCCC2)cc1)c1ccc(CN2CCc3ccccc3C2)cc1
AC50 [1]: 0.708 µM [rising, full curve, poor fit] | AC50 [2]: 0.562 µM [rising, full curve]

O=C(Nc1nc2c(s1)CCCC2)C1COc2ccccc2O1 (stereo unspecified)
AC50 [2]: 14.1 µM [rising, single point]

Cc1ccc(OCCn2c(CCCO)nc3ccccc32)cc1
AC50 [1]: 6.31 µM [rising, single point]

COc1ccc(NC(=S)N(Cc2ccc(Cl)cc2)Cc2ccc(C(=O)O)cc2)cc1Cl
AC50 [2]: 8.91 µM [falling, partial curve]

CC(C)c1ccc(S(=O)(=O)c2ccc(NN)cc2)cc1
AC50 [2]: 31.6 µM [rising, single point]

Cc1ccc(-c2c[n+](CC(=O)N3c4ccccc4Sc4ccccc43)c3n2CCC3)cc1
AC50 [2]: 15.8 µM [rising, partial curve, poor fit]

O=C(c1ccc(Cn2c(=O)[nH]c3ccccc3c2=O)cc1)N1CCN(c2ccc(Cl)cc2)CC1
AC50 [1]: 11.2 µM [rising, partial curve] | AC50 [2]: 14.1 µM [rising, partial curve]

COc1ccc(C(C(=O)NC(C)(C)C)N(Cc2ccc(C)cc2)C(=O)CCC(=O)Nc2cc(C)on2)cc1 (stereo unspecified)
AC50 [2]: 7.08 µM [falling, single point]

Cc1ccc(C)c(N2CCN(C(=O)C3CCCN(S(=O)(=O)c4c(C)noc4C)C3)CC2)c1 (stereo unspecified)
AC50 [1]: 12.6 µM [rising, single point] | AC50 [2]: 20 µM [rising, partial curve]

CC(=O)NS(=O)(=O)c1ccc(N=c2ssc3c2-c2cc(C)c(C)cc2NC3(C)C)cc1
AC50 [2]: 35.5 µM [rising, single point]

Cn1cnc([N+](=O)[O-])c1Oc1cccc2ccccc12
AC50 [1]: 14.1 µM [rising, single point] | AC50 [2]: 12.6 µM [rising, single point]

O=C1c2cc([N+](=O)[O-])cc3cc([N+](=O)[O-])cc(c23)C(=O)N1c1ccccn1
AC50 [2]: 8.91 µM [rising, partial curve]

CC1CCc2nc3sc4c(c3c(N)c2C1)CCCC4 (stereo unspecified)
AC50 [1]: 22.4 µM [rising, single point] | AC50 [2]: 22.4 µM [rising, single point]

Nc1c(C(=O)O)ccc2c1C(=O)c1ccccc1C2=O
AC50 [2]: 0.1 µM [rising, full curve, poor fit]

O=C(C1CCCCN1S(=O)(=O)c1ccc(F)cc1)N1CCN(c2ccccc2F)CC1 (stereo unspecified)
AC50 [2]: 11.2 µM [rising, single point]

O=C(N/N=C(/CC(=O)c1cccs1)C(F)(F)F)c1ccc(O)cc1
AC50 [1]: 0.112 µM [rising, partial curve, poor fit] | AC50 [2]: 20 µM [rising, partial curve, poor fit]

COc1ccc(N(CCC(=O)O)S(=O)(=O)c2ccc(C)cc2C)cc1
AC50 [2]: 10 µM [rising, partial curve]

CCS(=O)(=O)NCCc1csc(-c2ccccc2)n1
AC50 [1]: 5.62 µM [rising, partial curve, poor fit] | AC50 [2]: 12.6 µM [rising, partial curve, poor fit]

Cc1cc(N)n(-c2ccc(S(=O)(=O)c3ccc(C(C)C)cc3)cc2)n1
AC50 [1]: 0.447 µM [rising, full curve, poor fit] | AC50 [2]: 14.1 µM [rising, partial curve]

CCCCn1c(=N)n(CC(O)COc2cccc(C)c2)c2ccccc21 (stereo unspecified)
AC50 [1]: 10 µM [rising, single point] | AC50 [2]: 15.8 µM [rising, single point]

CCOC(=O)CN1N=C(/C=C/c2ccc(OC)cc2)CCC1=O
AC50 [2]: 7.08 µM [falling, partial curve]

CCCCC(=O)NC1CC(=O)N(c2ccc3c(c2)OCCO3)C1 (stereo unspecified)
AC50 [1]: 7.08 µM [falling, single point]

Cn1c(=O)c(C(=O)CSc2nncs2)c(N)n(Cc2ccccc2)c1=O
AC50 [1]: 17.8 µM [rising, single point] | AC50 [2]: 11.2 µM [rising, partial curve, poor fit]

COc1ccc(-c2csc(Cc3nnc(N4CCOCC4)n3-c3ccccc3)n2)cc1
AC50 [2]: 11.2 µM [rising, partial curve, poor fit]

CCc1cc(OCCCSc2nc(C)cc(=O)[nH]2)ccc1Cl
AC50 [2]: 8.91 µM [rising, partial curve]

Cc1ccc(NC(=O)COC(=O)/C(=C/c2cccs2)c2cccs2)cc1S(=O)(=O)N(C)C
AC50 [2]: 14.1 µM [rising, partial curve]

CCc1nnc(NC(=O)c2cc(S(=O)(=O)N(CC)CC)ccc2Cl)s1
AC50 [2]: 15.8 µM [rising, partial curve]

CCCc1cc(-c2[nH]ncc2-c2ccc(C(=O)OCC)o2)c(O)cc1O
AC50 [2]: 20 µM [rising, partial curve, poor fit]

CC(C)CNC(=O)c1coc(=O)c(Br)c1
AC50 [2]: 31.6 µM [rising, single point]

Cc1cc(F)ccc1NCc1ccc([N+](=O)[O-])cc1
AC50 [1]: 15.8 µM [rising, single point] | AC50 [2]: 11.2 µM [rising, partial curve, poor fit]

CCOc1ccccc1-c1cc(C(=O)N/N=C/c2ccc(O)c(OC)c2)c2ccccc2n1
AC50 [1]: 14.1 µM [rising, single point]

COc1ccc(Cc2nc(-c3cccs3)no2)cc1OC
AC50 [2]: 31.6 µM [rising, single point]

Cc1nn(Cc2ccccc2)c(Cl)c1/C=N/NC(=O)c1cccnc1
AC50 [1]: 6.31 µM [rising, partial curve, poor fit] | AC50 [2]: 0.158 µM [rising, full curve, poor fit]

CC1Cc2ccccc2N1C(=S)NC(=O)c1cccc(Br)c1 (stereo unspecified)
AC50 [2]: 22.4 µM [rising, partial curve]

C#CC[N+](C)(C)CCCCCCCCCCCC
AC50 [1]: 0.0501 µM [falling, partial curve, poor fit] | AC50 [2]: 5.62 µM [rising, single point]

COc1ccc(C2=NOC(C(=O)NCc3ccc(F)cc3)C2)cc1 (stereo unspecified)
AC50 [1]: 5.62 µM [falling, full curve] | AC50 [2]: 6.31 µM [falling, full curve]

COc1ccc(N(C(=O)C(C)C)S(=O)(=O)c2cccs2)cc1
AC50 [2]: 7.94 µM [rising, partial curve, poor fit]

Cc1ccc(-c2nc(N/N=C/c3ccccc3[N+](=O)[O-])c3ccccc3n2)cc1
AC50 [1]: 1.78 µM [falling, partial curve] | AC50 [2]: 8.91 µM [falling, single point]

Cc1cccc2cc(CN(Cc3cccs3)C(c3nnnn3C3CCCC3)C(C)C)c(=O)[nH]c12 (stereo unspecified)
AC50 [2]: 3.55 µM [rising, partial curve, poor fit]

O=C(c1cccc(Cl)c1)N1CCN(CCc2ccncc2)CC1
AC50 [1]: 31.6 µM [falling, single point] | AC50 [2]: 31.6 µM [falling, single point]

CCC/C(O)=C1\C(=O)CC(C)(C)CC1=Nc1ccccc1OC
AC50 [1]: 31.6 µM [rising, single point] | AC50 [2]: 22.4 µM [rising, single point]

CN1CCN(/N=C/c2ccc(N(C)c3ccccc3)cc2)CC1
AC50 [2]: 10 µM [rising, partial curve]

COc1cc(C(=O)NS(=O)(=O)c2ccccc2C)ccc1Cc1cn(C)c2ccc(NC(=O)OC3CCCC3)cc12
AC50 [1]: 12.6 µM [rising, partial curve, poor fit]

COc1ccc(OC)c(C2C3=C(N=C4SCC(=O)N42)c2ccccc2CC3)c1 (stereo unspecified)
AC50 [2]: 8.91 µM [rising, partial curve, poor fit]

O=C(Nc1cccc(Cl)c1)c1cccc(Oc2ccc([N+](=O)[O-])cc2Cl)c1
AC50 [2]: 35.5 µM [rising, single point]

O=C(NC(=S)Nc1ccccc1N1CCCCC1)c1cccs1
AC50 [2]: 35.5 µM [rising, single point]

O=C(CC1c2ccccc2Oc2ccccc21)N1CCN(c2ccccn2)CC1
AC50 [1]: 22.4 µM [falling, single point] | AC50 [2]: 35.5 µM [falling, partial curve]

Cn1c(C(C(=O)NCC2CCCO2)N(CCc2ccccc2)C(=O)Cn2nnc3ccccc32)nc2ccccc21 (stereo unspecified)
AC50 [1]: 3.55 µM [falling, partial curve]

COC(=O)C1=C(C)N(CCCC(=O)O)C(=O)NC1c1ccc(-c2ccccc2)cc1 (stereo unspecified)
AC50 [2]: 8.91 µM [rising, partial curve, poor fit]

CCCNC1=CC(=O)CC(C)(C)C1
AC50 [1]: 11.2 µM [rising, single point] | AC50 [2]: 12.6 µM [rising, partial curve]

COCCNCC1C(Oc2ccc(Cl)cc2)C(=O)N1c1ccccc1C (stereo unspecified)
AC50 [1]: 35.5 µM [falling, single point]

CCOC(=O)N1CCN(C(=O)CS(=O)(=O)c2cn(Cc3ccccc3Cl)c3ccccc23)CC1
AC50 [1]: 5.62 µM [rising, single point] | AC50 [2]: 5.62 µM [rising, single point]
